Assay results: US20200377594A1
Where a chain is given by its changes, count along the chain named. Results are given in words; binding and its absence hold for the method and conditions named. Some entries that bind do so weakly or less than the wild type.

Sequences of proteins named here, by UniProt entry; tags and fusion partners are left off. A change or cut given only in a name is not applied to a line headed by its entry.
UniProt P07766: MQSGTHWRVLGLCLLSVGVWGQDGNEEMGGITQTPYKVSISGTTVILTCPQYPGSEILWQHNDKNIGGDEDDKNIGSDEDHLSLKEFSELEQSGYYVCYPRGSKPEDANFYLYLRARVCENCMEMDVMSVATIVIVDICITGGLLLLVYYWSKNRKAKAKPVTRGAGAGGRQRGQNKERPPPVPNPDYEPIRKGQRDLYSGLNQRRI

B1: mAb#Freiburg (antibody, human IgG1, lambda, V domains shown)
VH: EVQLVESGGGLVKPGGSLRLSCAASGFTFNTYAMNWVRQAPGKGLEWVGRIRSKYNNYATYYADSVKDRFTISRDDSKNTLYLQMNSLKTEDTAVYYCTTHGNFGNSYVSWFAYWGQGTLVTVSS
VL: QTVVTQEPSLTVSPGGTVTLTCRSSTGAVTTSNYANWVQQKPGQAPRGLIGGTNKRAPGTPARFSGSLLGGKAALTLLGAQPEDEAEYYCALWYSNLWVFGGGTKLTVLG
B2: mAb#Bremen (antibody, human IgG1, lambda, V domains shown)
VH: B1 VH
VL: B1 VL with N54K, K55F, R56L, L78S, A80V
B3: mAb#München (antibody, human IgG1, lambda, V domains shown)
VH: B1 VH
VL: B1 VL with N54K, K55F, R56L

Each binder was assayed against human CD3 expressed on cells (Jurkat cells; human lymphocytes/PBMCs) (human) (UniProt P07766) (assay: flow cytometry on CD3 positive Jurkat cells).

binding	Binder
binds	B1
binds	B2
binds	B3

What follows are binders tested against human CD3 expressed on cells (Jurkat cells; human lymphocytes/PBMCs) (human) (UniProt P07766) (assay: flow cytometry on human PBMCs, lymphocyte gate).

binding	Binder
binds	B1
binds	B2
binds	B3

Each binder was assayed against human CD3 expressed on cells (Jurkat cells; human lymphocytes/PBMCs) (human) (UniProt P07766) (assay: flow cytometry on CD3 positive Jurkat cells, detection with anti-human F(ab')2-PE, RFU).

binding	Binder
binds	B1
binds	B2
binds	B3
